Results are given in words; binding and its absence hold for the method and conditions named. Binding seen in cells or lysates may run through a third protein. Some binding calls cover weakened binding; strength is not graded here.
Experiments:
[1] = target: Protein Arginine Methyltransferase 1 (PRMT1), endogenous in glioblastoma stem cells (human (endogenous in GSCs)) (UniProt Q99873); test: co-IP; GSC lysates, endogenous proteins; reciprocal immunoprecipitation with anti-Myc, anti-PRMT1 and anti-PRMT5 antibodies and control IgGs, western blot; also after 7 days in 2% FBS medium (Myc/PRMT1 kept)
[2] = target: Myc (c-myc), endogenous in glioblastoma stem cells (human (endogenous in GSCs)) (UniProt P01106); test: as above
[3] = target: Myc (c-myc), endogenous in glioblastoma stem cells (human (endogenous in GSCs)) (UniProt P01106); test: co-IP; GSCs differentiated for 7 days in 2% FBS medium, endogenous proteins; immunoprecipitation and western blot
[4] = target: Protein Arginine Methyltransferase 1 (PRMT1), endogenous in HEK293T cells (human (endogenous in HEK293T)) (UniProt Q99873); test: co-IP; FlagMyc/HEK293T lysates (140 mM NaCl, 10 mM Tris pH 7.6, 1% Triton X-100, 0.1% sodium deoxycholate, 1 mM EDTA); reciprocal immunoprecipitation with anti-Flag, anti-PRMT1 and anti-PRMT5 antibodies and control IgGs, western blot; also in cells given scrambled siRNA or siPRMT1 (PRMT5/FlagMyc kept)
Flag-tagged Myc = Flag-tagged Myc (UniProt P01106); test: as above
[5] = target: Protein Arginine Methyltransferase 1 (PRMT1), endogenous in HEK293T cells (human (endogenous in HEK293T)) (UniProt Q99873); test: co-IP; HEK293T cells partially depleted of PRMT1 by siRNA, then transfected with FlagMyc; lysates immunoprecipitated with anti-PRMT1 antibody

By UniProt entry, the sequences of proteins in these tests, tags left out.
UniProt Q99873: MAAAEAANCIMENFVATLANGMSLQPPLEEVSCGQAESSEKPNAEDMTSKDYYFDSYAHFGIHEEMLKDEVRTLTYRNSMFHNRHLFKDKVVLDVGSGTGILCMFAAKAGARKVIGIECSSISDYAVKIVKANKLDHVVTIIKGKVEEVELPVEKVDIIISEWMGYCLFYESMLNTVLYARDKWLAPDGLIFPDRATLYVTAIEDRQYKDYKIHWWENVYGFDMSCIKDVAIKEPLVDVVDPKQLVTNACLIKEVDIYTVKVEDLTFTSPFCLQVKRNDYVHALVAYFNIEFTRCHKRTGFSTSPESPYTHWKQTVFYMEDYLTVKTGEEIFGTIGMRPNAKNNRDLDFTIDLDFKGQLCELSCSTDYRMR
UniProt P01106: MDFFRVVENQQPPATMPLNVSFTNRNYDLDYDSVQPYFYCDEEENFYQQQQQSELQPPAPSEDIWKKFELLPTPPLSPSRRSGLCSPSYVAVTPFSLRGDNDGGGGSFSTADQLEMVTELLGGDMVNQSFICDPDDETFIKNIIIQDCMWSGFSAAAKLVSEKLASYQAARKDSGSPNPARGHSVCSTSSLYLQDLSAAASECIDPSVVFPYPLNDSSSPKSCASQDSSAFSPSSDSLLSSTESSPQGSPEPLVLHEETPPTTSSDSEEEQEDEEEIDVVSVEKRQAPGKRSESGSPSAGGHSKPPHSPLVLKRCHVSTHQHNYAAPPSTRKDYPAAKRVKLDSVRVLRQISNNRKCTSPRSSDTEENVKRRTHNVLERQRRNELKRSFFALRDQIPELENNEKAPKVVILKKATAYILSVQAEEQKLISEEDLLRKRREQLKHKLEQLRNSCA
UniProt O14744: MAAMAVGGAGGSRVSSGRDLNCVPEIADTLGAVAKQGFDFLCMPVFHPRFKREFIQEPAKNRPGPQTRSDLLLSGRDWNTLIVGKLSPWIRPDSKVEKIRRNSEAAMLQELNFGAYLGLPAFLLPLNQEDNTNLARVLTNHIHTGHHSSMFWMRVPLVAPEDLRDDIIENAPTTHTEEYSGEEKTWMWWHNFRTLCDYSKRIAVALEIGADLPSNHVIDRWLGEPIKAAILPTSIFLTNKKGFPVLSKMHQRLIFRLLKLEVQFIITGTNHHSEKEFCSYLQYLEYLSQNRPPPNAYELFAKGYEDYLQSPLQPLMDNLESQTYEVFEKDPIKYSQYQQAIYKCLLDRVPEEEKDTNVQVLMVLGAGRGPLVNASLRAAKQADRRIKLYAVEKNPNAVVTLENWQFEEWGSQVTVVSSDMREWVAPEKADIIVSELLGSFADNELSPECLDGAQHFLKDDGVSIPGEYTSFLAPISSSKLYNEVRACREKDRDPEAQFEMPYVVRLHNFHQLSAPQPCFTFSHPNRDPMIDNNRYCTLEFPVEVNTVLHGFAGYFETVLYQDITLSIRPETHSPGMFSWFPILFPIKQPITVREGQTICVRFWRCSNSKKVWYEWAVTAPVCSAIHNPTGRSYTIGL

Row | binding [1] | binding [2] | binding [3] | binding [4] | binding (Flag-tagged Myc) | binding [5] | Substance
1 | binds | binds | binds weakly | – | – | – | Protein Arginine Methyltransferase 5 (PRMT5), endogenous in glioblastoma stem cells (from UniProt O14744 1-637) (enzyme)
2 | – | binds | – | – | – | – | Protein Arginine Methyltransferase 1 (PRMT1), endogenous in glioblastoma stem cells (from UniProt Q99873 1-371) (enzyme)
3 | – | – | – | binds | binds | binds weakly | Protein Arginine Methyltransferase 5 (PRMT5), endogenous in HEK293T cells (from UniProt O14744 1-637) (enzyme)

Source: PMC6828805
